Assay results: patent publication US20100048488A1, “IMMUNOMODULATORY PEPTIDES” (Syntonix Pharmaceuticals, Inc., priority 2008, published 2010)

Protein sequences, listed by entry. Tags and fused reporters are not part of them. Residues count along the entry.
UniProt P55899, 24-297 limits assumed: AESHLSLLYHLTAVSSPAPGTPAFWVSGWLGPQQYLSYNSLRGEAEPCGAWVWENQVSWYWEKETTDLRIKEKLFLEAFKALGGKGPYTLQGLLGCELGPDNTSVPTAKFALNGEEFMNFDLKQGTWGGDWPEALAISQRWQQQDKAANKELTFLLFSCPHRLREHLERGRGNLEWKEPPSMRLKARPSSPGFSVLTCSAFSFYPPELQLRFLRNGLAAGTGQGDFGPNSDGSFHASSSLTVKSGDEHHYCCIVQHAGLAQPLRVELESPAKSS

Target: T1, soluble human FcRn (shFcRn) (Homo sapiens, UniProt P55899)
T1 construct: made in house; host or cells: Chinese hamster ovary (CHO) cells, glutamine synthetase expression system
Experiment: Peptide-IgG competition ELISA
Assay type: binding
Protocol: The wells were coated with 100 μl/well of 1 μg/ml biotinylated-shFcRn in Buffer A. The plate was sealed and incubated at 37° C. for 2 hours. Afterwards, the plate was washed with 200 μl/well of Buffer B (Buffer B: 100 mM MES pH 6, 150 mM NaCl, 0.5% BSA IgG-free (Jackson ImmunoResearch, West Grove, Pa.), 0.05% Tween-20). […] To allow for mixing, the plate was rocked for 2 minutes, sealed and incubated at 37° C. for 2 hours. […] The plate was covered, incubated for 30 minutes at room temperature and washed 4 times with 200 μl/well of ice-cold buffer B. SureBlue TMB substrate solution (100 μl/well, KPL, Gaithersburg, Md.) was added and the plate was allowed to incubate at room temperature until color developed, which took 5 to 10 minutes. Once color developed, 100 μl/well of TMB stop solution (KPL, Gaithersburg, Md.) was added and the absorbance was measured at 450 nm.

## CC(C)C[C@H]1C(=O)N[C@@H](Cc2ccc(O)cc2)C(=O)N2CCC[C@H]2C(=O)N[C@H](C(N)=O)CSSC(C)(C)[C@H](NC(=O)[C@H](Cc2ccccc2)NC(=O)[C@H](CCCNC(=N)N)NC(=O)CCC(=O)N[C@@H](CCCNC(=N)N)C(=O)N[C@@H](Cc2ccccc2)C(=O)N[C@@H]2C(=O)N[C@@H]([C@@H](C)O)C(=O)NCC(=O)N[C@@H](Cc3c[nH]cn3)C(=O)N[C@@H](Cc3ccccc3)C(=O)NCC(=O)N(C)CC(=O)N(C)[C@@H](CC(C)C)C(=O)N[C@@H](Cc3ccc(O)cc3)C(=O)N3CCC[C@H]3C(=O)N[C@H](C(N)=O)CSSC2(C)C)C(=O)N[C@@H]([C@@H](C)O)C(=O)NCC(=O)N[C@@H](Cc2c[nH]cn2)C(=O)N[C@@H](Cc2ccccc2)C(=O)NCC(=O)N(C)CC(=O)N1C [Peptide No. 283]
  IC50: 2.4 nM
